According to PubChem BioAssay AID588590 (National Center for Advancing Translational Sciences (NCATS), 2011):
The whole screen tested about 390,000 compounds, of which about 4,000 (1%) were called active. Inconclusive means that the source gave no clear call. Such entries were picked first, then a sample of the others. Calls come from the whole dose curve; as a rule, active = well fitted inhibition curve with a large enough effect; inconclusive = small, poorly fitted or top-dose-only effect, or another doubt; inactive = no such curve, though single readings can be large or run the other way. A potency beside an inconclusive call is a rough fit, not a confirmed value.

Sequences of proteins named here, by UniProt entry; tags and fusion partners are left off. A change or cut given only in a name is not applied to a line headed by its entry.
UniProt Q9UNA4: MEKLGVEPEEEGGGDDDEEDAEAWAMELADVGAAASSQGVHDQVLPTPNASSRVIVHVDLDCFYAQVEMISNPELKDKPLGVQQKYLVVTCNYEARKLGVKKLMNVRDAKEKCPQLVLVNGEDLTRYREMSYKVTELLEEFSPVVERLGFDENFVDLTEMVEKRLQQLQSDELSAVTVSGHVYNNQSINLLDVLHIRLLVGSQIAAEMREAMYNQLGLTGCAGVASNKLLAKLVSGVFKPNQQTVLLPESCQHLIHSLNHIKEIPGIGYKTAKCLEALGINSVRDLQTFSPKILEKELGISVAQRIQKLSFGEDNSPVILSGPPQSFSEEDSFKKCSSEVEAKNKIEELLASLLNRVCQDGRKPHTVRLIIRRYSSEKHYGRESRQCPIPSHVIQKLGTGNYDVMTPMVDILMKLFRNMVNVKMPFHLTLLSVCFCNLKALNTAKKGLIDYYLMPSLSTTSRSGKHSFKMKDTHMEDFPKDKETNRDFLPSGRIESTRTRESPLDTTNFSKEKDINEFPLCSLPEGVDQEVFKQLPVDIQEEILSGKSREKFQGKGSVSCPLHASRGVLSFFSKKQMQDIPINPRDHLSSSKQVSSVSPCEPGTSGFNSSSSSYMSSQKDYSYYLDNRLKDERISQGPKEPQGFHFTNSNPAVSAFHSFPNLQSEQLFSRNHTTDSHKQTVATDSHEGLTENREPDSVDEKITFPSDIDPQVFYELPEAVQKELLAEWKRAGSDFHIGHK

Biological target: DNA polymerase iota (Homo sapiens) (UniProt Q9UNA4)
Assay: qHTS for Inhibitors of Polymerase Iota
Settings: Pol iota fluorescent replication assay, 10 min; series mostly up to 115 µM; activity, negative = inhibition: at the top concentration
How it was run: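 Pol iota at 10 nM preincubated 15 min with compounds at room temperature; reaction started with fluorescent substrate, 50 nM final. Fluorescence read kinetically at 0 and 10 min; buffer-only wells as negative control.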
Potency is the fitted concentration of half-maximal effect.

Potency, inconclusive:
CCOc1ccc(C2OC34CCCCC3C(C#N)(C#N)C2(C#N)C(=N)O4)cc1OC (stereo not given) 39.8 µM [inhibitor, single point]
O=S(=O)(c1ccc(Br)s1)N1CCN(c2ccccn2)CC1 22.4 µM [inhibitor, full curve]
Cc1cc(NC(=O)CSC2=NCCS2)no1 39.8 µM [inhibitor, single point]
O=C(NCC(c1ccco1)N1CCOCC1)c1c(F)cccc1F (stereo not given) 89.1 µM [inhibitor, partial curve, poor fit]
COc1ccc(-c2nc3cc(C)ccn3c2NC(=O)c2c(F)cccc2Cl)cc1 39.8 µM [inhibitor, partial curve, poor fit]
COc1ccc(S(=O)(=O)N2CCCC(C(=O)NCc3ccco3)C2)cc1OC (stereo not given) 79.4 µM [inhibitor, single point]
CC(C)c1ccc(NC(=O)C2CCN(S(=O)(=O)c3cccc4nsnc34)CC2)cc1 56.2 µM [inhibitor, partial curve, poor fit]
COc1ccc(-n2c(-c3cccc(C)c3[N+](=O)[O-])n[nH]c2=S)cc1 112 µM [inhibitor, single point]
C#CCOCCOCCOCCNc1nc(N2CCN(C(=O)CCCCCCCCCCNC(=O)[C@@H]([C@H](C)O)n3cc(C)nn3)CC2)nc(N2CCN(C(=O)CCCCCCCCCCNC(=O)[C@@H]([C@H](C)O)n3cc(C)nn3)CC2)n1 35.5 µM [inhibitor, single point]
O=C(Cc1cccs1)N=Nc1c(O)[nH]c2ccc(Br)cc12 20 µM [inhibitor, single point]
Cc1oc(-c2ccc(Cl)cc2)[n+]([O-])c1C 17.8 µM [inhibitor, single point]
COC(=O)c1ccc(-c2nc3cc(NC(C)=O)ccc3o2)cc1 89.1 µM [inhibitor, single point]
COc1cc(NC(=O)COC(=O)CSc2ccc3ccccc3c2)c(C)cc1[N+](=O)[O-] 56.2 µM [inhibitor, partial curve, poor fit]
O=C(O)/C(=C\c1cccc(C(F)(F)F)c1)c1ccc(S(=O)(=O)N2CCCC2)s1 79.4 µM [inhibitor, partial curve, poor fit]
N[C@@H](Cc1c[nH]c2ccccc12)C(=O)O 5.01 µM [inhibitor, full curve, poor fit]
O=C(CCCSc1ccccc1)Nc1nc(-c2ccco2)c(-c2ccco2)s1 20 µM [inhibitor, full curve]
CC(C)NC(=O)NC(=O)CN1c2cccc3cccc(c23)S1(=O)=O 6.31 µM [inhibitor, partial curve]
Cc1cccc(CS(=O)(=O)Cc2ccc(C(=O)NCCc3ccccc3)o2)c1 79.4 µM [inhibitor, partial curve, poor fit]
CCOC(=O)c1c(S(=O)(=O)N2CCCC(C(=O)NCc3cccc(OC)c3)C2)c(C)n(C)c1C (stereo not given) 100 µM [inhibitor, partial curve, poor fit]
CC1=NN2C(=N)/C(=C\c3ccc(SCc4ccccc4)o3)C(=O)N=C2S1 14.1 µM [inhibitor, partial curve, poor fit]
COc1ccccc1N1CCN(CC(=O)Nc2nc(C)c(C(=O)N(C)C)s2)CC1 39.8 µM [inhibitor, single point]
Cc1ccc(/C=C/C(=O)NC(=S)Nc2ccc(S(=O)(=O)Nc3cc(C)on3)cc2)cc1 39.8 µM [inhibitor, single point]
CCOc1ccc(N2CC(c3nc4ccccc4n3Cc3ccccc3F)CC2=O)cc1 (stereo not given) 39.8 µM [inhibitor, single point]
O=C(N/N=C/c1cccnc1)c1ccc2ccccc2c1O 20 µM [inhibitor, partial curve, poor fit]
Cc1ccc(NC(=O)CCCc2nnc3n(C)c(=O)c4sccc4n23)cc1F 50.1 µM [inhibitor, partial curve]
C=CCNc1nc(-c2cccc(OC)c2O)nc2ccccc12 35.5 µM [inhibitor, partial curve]
Cc1ccc(S(=O)(=O)NNC(=O)CC#N)cc1 28.2 µM [inhibitor, partial curve, poor fit]
Cc1cc(C)cc(NC(=S)NCCc2c[nH]c3ccccc23)c1 35.5 µM [inhibitor, single point]
COc1ccc(Cn2c(CCC(=O)Nc3ccc(CC#N)cc3)nc3cccnc32)cc1 44.7 µM [inhibitor, partial curve]
CCOC(=O)c1c(C)[nH]c(=S)c(C#N)c1-c1ccc(OC)cc1 15.8 µM [inhibitor, full curve, poor fit]
CC(O)Cn1cnc2c1c(=O)n(C)c(=O)n2C (stereo not given) 39.8 µM [inhibitor, single point]

Molecules from the list above containing bromine:
Potency, inconclusive:
O=S(=O)(c1ccc(Br)s1)N1CCN(c2ccccn2)CC1 22.4 µM [inhibitor, full curve]
O=C(Cc1cccs1)N=Nc1c(O)[nH]c2ccc(Br)cc12 20 µM [inhibitor, single point]

Following part:

Potency, active:
CC1=NN(c2ccccc2C)C(=O)C1 3.16 µM
CC(C)(C)c1cc(=O)n(-c2ccccc2)[nH]1 7.08 µM
COc1ccc(CN2CCN(C(=O)CCC(=O)c3ccc(C)s3)CC2)cc1OC 89.1 µM

activity, negative = inhibition, inactive:
COc1ccc(OC)c(Nc2nc(NCc3ccco3)nc(N)c2[N+](=O)[O-])c1 -7.09%
COc1ccc(NC(=O)NC2COc3ccccc3C2)c(OC)c1 (stereo not given) -9.81%
O=C(CCC1N=C2c3ccccc3N=C(SCc3cccc(F)c3)N2C1=O)NCc1cccs1 (stereo not given) -15.7%
Cc1cccc(NC(=O)C(=O)NCC(c2cccnc2)N2CCc3ccccc3C2)c1C (stereo not given) -8.5%
COCCOC(=O)C1=C(C)NC2=C(C(=O)CC(C)(C)C2)C1c1cccnc1 (stereo not given) -0.668%
Cc1c(C(=O)N/N=C/c2cccnc2)nnn1-c1nonc1N 47.6%

Reprinted at random: two entries already listed, in no set order.
activity, negative = inhibition, inactive:
COc1ccc(NC(=O)NC2COc3ccccc3C2)c(OC)c1 (stereo not given) -9.81%
Cc1cccc(NC(=O)C(=O)NCC(c2cccnc2)N2CCc3ccccc3C2)c1C (stereo not given) -8.5%
